These results are taken from PMC4758617.

B1: SFRS3 (protein, UniProt P84103 1-164)
chain: MHRDSCPLDCKVYVGNLGNNGNKTELERAFGYYGPLRSVWVARNPPGFAFVEFEDPRDAADAVRELDGRTLCGCRVRVELSNGEKRSRNRGPPPSWGRRPRDDYRRRSPPPRRRSPRRRSFSRSRSRSLSRDRRRERSLSRERNHKPSRSFSRSRSRSRSNERK
B2: TRA2B (protein, UniProt P62995 1-288)
chain: MSDSGEQNYGERESRSASRSGSAHGSGKSARHTPARSRSKEDSRRSRSKSRSRSESRSRSRRSSRRHYTRSRSRSRSHRRSRSRSYSRDYRRRHSHSHSPMSTRRRHVGNRANPDPNCCLGVFGLSLYTTERDLREVFSKYGPIADVSIVYDQQSRRSRGFAFVYFENVDDAKEAKERANGMELDGRRIRVDFSITKRPHTPTPGIYMGRPTYGSSRRRDYYDRGYDRGYDDRDYYSRSYRGGGGGGGGWRAAQDRDQIYRRRSPSPYYSRGGYRSRSRSRSYSPRRY
B3: FBL (protein, UniProt P22087 1-321)
chain: MKPGFSPRGGGFGGRGGFGDRGGRGGRGGFGGGRGRGGGFRGRGRGGGGGGGGGGGGGRGGGGFHSGGNRGRGRGGKRGNQSGKNVMVEPHRHEGVFICRGKEDALVTKNLVPGESVYGEKRVSISEGDDKIEYRAWNPFRSKLAAAILGGVDQIHIKPGAKVLYLGAASGTTVSHVSDIVGPDGLVYAVEFSHRSGRDLINLAKKRTNIIPVIEDARHPHKYRMLIAMVDVIFADVAQPDQTRIVALNAHTFLRNGGHFVISIKANCIDSTASAEAVFASEVKKMQQENMKPQEQLTLEPYERDHAVVVGVYRPPPKVKN
B4: LUC7L2 (protein, UniProt Q9Y383 1-392)
chain: MSAQAQMRAMLDQLMGTSRDGDTTRQRIKFSDDRVCKSHLLNCCPHDVLSGTRMDLGECLKVHDLALRADYEIASKEQDFFFELDAMDHLQSFIADCDRRTEVAKKRLAETQEEISAEVAAKAERVHELNEEIGKLLAKVEQLGAEGNVEESQKVMDEVEKARAKKREAEEVYRNSMPASSFQQQKLRVCEVCSAYLGLHDNDRRLADHFGGKLHLGFIEIREKLEELKRVVAEKQEKRNQERLKRREEREREEREKLRRSRSHSKNPKRSRSREHRRHRSRSMSRERKRRTRSKSREKRHRHRSRSSSRSRSRSHQRSRHSSRDRSRERSKRRSSKERFRDQDLASCDRDRSSRDRSPRDRDRKDKKRSYESANGRSEDRRSSEEREAGEI
B5: DEK (protein, UniProt P35659 1-375)
chain: MSASAPAAEGEGTPTQPASEKEPEMPGPREESEEEEDEDDEEEEEEEKEKSLIVEGKREKKKVERLTMQVSSLQREPFTIAQGKGQKLCEIERIHFFLSKKKTDELRNLHKLLYNRPGTVSSLKKNVGQFSGFPFEKGSVQYKKKEEMLKKFRNAMLKSICEVLDLERSGVNSELVKRILNFLMHPKPSGKPLPKSKKTCSKGSKKERNSSGMARKAKRTKCPEILSDESSSDEDEKKNKEESSDDEDKESEEEPPKKTAKREKPKQKATSKSKKSVKSANVKKADSSTTKKNQNSSKKESESEDSSDDEPLIKKLKKPPTDEELKETIKKLLASANLEEVTMKQICKKVYENYPTYDLTERKDFIKTTVKELIS

These are yes or no findings as the source states them, for the method shown. Binding seen in cells or lysates may run through a third protein. These calls come from enrichment with a bait or labelling near it, and not all partners need be listed. Sequences can lack the tags named with a protein.

The assay addresses T1, FLAG tagged SETD7 (protein lysine methyltransferase SETD7) (human) (UniProt Q8WTS6).
T1 sequence: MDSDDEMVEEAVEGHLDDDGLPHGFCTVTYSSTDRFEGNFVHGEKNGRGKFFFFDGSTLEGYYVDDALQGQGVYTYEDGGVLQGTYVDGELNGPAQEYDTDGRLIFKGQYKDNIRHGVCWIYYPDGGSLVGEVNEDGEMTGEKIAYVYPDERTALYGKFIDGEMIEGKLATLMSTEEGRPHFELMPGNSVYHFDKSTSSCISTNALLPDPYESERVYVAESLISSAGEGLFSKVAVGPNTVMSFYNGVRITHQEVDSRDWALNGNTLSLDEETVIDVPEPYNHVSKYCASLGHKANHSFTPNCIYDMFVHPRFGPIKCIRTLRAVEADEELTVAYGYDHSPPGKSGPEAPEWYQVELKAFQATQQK
Nature of the assay: affinity purification with mass spectrometry; nuclear extract of HeLa cells transduced with FLAG:SETD7 (control: empty vector), adjusted to 300 mM salt and 0.1% NP40, on ANTI-FLAG M2 affinity gel; washed with BC300 with 0.1% NP40; eluted with 0.3 mg/ml FLAG peptide; in-gel or in-solution digestion.
Take B1: the binding entry was “binds”.

With B2, the binding entry is reported as “binds”.

As for B3, the binding entry is reported as “binds”.

B4: the binding result was “binds”.

With B5, the binding result is recorded as “binds”.
